# Results published in PubChem BioAssay AID1347426 (Functional Genomics Laboratory (NCATS/FGL), 2020).
# Screen size: about 31,000 sequences; about 1,400 (4.5%) were called active.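 Rule for the calls: active = median seed-adjusted z-score above 1 or below -1; inactive = the rest.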 The list shows a part of the results.
# Experiment: Novel Modifiers of Survival Motor Neuron (SMN) Protein: Gene Identification via Genome-wide siRNA Screen;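 note: luminescence tracks full-length SMN protein made from the SMN2 reporter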
# Conditions: HEK293T SMN2-luciferase reporter, siRNA knockdown, 72 h; actives lie on both sides
# Outline: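 Genome-wide siRNA screen (10418 genes, 3 siRNAs each, 1 pmol per well) by reverse transfection in HEK293T cells stably carrying an SMN2-luciferase reporter; luminescence after 72 hours, normalized to negative-control siRNA, log10-transformed, MAD-scored.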
row,Sequence,median seed-adjusted z-score
1,GCAUUCCAGAGGAUCAUGATT against PDE12,inactive: 0.422
2,AGGCUGUGAUUAAGAGCCATT against LDB3,inactive: 0
3,GCAUCAAAACUUAAUCAGATT against ILKAP,inactive: 0
4,UUAUCAUCGUCCAAGUUUATT against CCL25,inactive: 0.0698
5,GCAGUAAUAUAGUUCCGGUTT against IL18R1,inactive: -0.206
6,GGUGGUCCAUGAAAAAGCATT against SOD1,inactive: -0.8
7,GGAGGAUCGUGAAUGACGATT against DPYSL4,inactive: 0.71
8,GAACAGCCUCGAUGUCAAATT against TMPRSS4,inactive: -0.54
9,CAUUCACGAUCUUCCCGUATT against MYO16,inactive: -0.072
10,GAGAUGAACGUGUAAAGAATT against CIR,inactive: -0.197
11,CAUGGGAUCGAGUACAUUUTT against CPA5,inactive: 0.141
12,GCGAAAUGAUAACUUCUAATT against XRN1,inactive: 0.522
13,GGAGCUCGGUGAAUUCAAGTT against LARP6,inactive: 0.0335
14,GGUUUUCUUAUGACACUUUTT against RNF114,inactive: 0.452
15,GAAUUGGACAUUUCGGAUATT against NEK10,inactive: -0.0464
16,GUACCCAGCUACAACAGAATT against WHSC1L1,inactive: -0.283
17,CCGUUGUAAUGAAUGUAAATT against ZNF221,inactive: -0.536
18,AGGCUCUACUUAGAAGACATT against VIPR2,inactive: 0.706
19,GCUCUGGUAUUAACCUGGATT against RAMP1,inactive: -0.031
20,GGAAGAUUAUUACAGUCGATT against RERE,inactive: 0.129
21,CACGACAAGUGGUACAAGATT against GRIN3B,inactive: 0.39
22,AGGGUUACUUUGUCCAGAATT against GUSB,inactive: -0.542

row,Sequence,median seed-adjusted z-score
1,GGUCACACGUUACAUGCUATT against CNTNAP1,inactive: 0.176
2,GGCUCAACAUUUCAGAUGUTT against PCDHGC5,inactive: -0.0264
3,CCUAGUGUCUAUCCGUAUATT against ZBTB38,inactive: 0.448
4,CUUCAGCAGUUGUUCAGCATT against CHSY3,inactive: -0.113
5,GCAAAACCGAGAAAAACGATT against HSD11B1L,inactive: -0.00448
6,CAGGAAGAAUUGAACUUGUTT against CCL23,inactive: -0.285
7,CAUUGAAGGGUUCGAAAUATT against MTM1,inactive: 0.406
8,GGAGUCAAGUGAAGCAGAATT against L3MBTL2,inactive: -0.312
9,GGGUAACUGUUGAUAACCATT against POGK,inactive: 0.938
10,GCAAUAAGAGAGAUCAGUATT against PDSS1,inactive: -0.287
11,CGGUGCCUACAAUGCCUUUTT against EFEMP2,inactive: -0.143
12,AGACCAAGAUGACGAUGAATT against TRIM52,inactive: 0.00966
13,GGGAACUUCUUGUUAUGAATT against ARNTL2,inactive: 0.102
14,CCCUGAAGGUCCUAGUGGATT against CDKN2D,inactive: -0.455
15,UCCACAAGGUGAAAACAGATT against PPYR1,inactive: 0.589
16,CACCUAUUGAGUAUCCAAATT against ETFDH,inactive: 0.154
17,AGAGGAUCCUGAACUCCAATT against MYO19,inactive: 0.0987
18,GAACAUCAGUUCUACGAGATT against IP6K2,inactive: -0.193
19,UCGAGGAAAUGAUCCGGGATT against GALE,inactive: -0.153
20,GAUAAAGUUGGAACAGAUATT against EEF1B2,inactive: 0.388
21,GAACAAAAUAUUAUCCGAATT against PTF1A,inactive: 0.482
22,GAACGGCUAUGUGCGUUUATT against BMPR2,inactive: 0

row,Sequence,median seed-adjusted z-score
1,AGGUUUACACGGUCGUGGATT against AP2S1,inactive: 0.146
2,UGCUCUACUUCUUAAGUGATT against STARD8,inactive: -0.135
3,CACUCAUUCAGUUCGAAGATT against ME2,inactive: -0.0557
4,CGAACUACUCUUAAGCUUUTT against TRPC4,inactive: -0.272
5,GGAGAGCACCUAUCAGCAATT against RPA2,inactive: -0.0957
6,GCAGAGGUACUAUUGAAAUTT against CRYZ,inactive: -0.809
7,GGCCUUUCAUUAUAGAUCATT against ZNF624,inactive: 0.378
8,GAAUGUGACUGACACGGAUTT against LOC647743,inactive: -0.203
9,CUACUGUCCUGAUGUAUCATT against MYF5,inactive: -0.786
10,GGAUUUCGAAGGAGAUUCATT against INPP5E,inactive: -0.0321
11,AAGACGCAAUGGGAAACAGTT against FAHD2B,inactive: 0.154
12,GAAUGUUCUGUGCCGGAUATT against TMPRSS11A,inactive: 0
13,GCUUGGGUGAAGAACCACATT against SLC22A13,inactive: 0.904
14,CGGGUACUCUAUUUCCGUUTT against PCDHB4,inactive: 0.00998
15,UGUCAGGCCUGAUUAUCUATT against SOD2,inactive: -0.558
16,GGAUGUAGUAAUUACUAUATT against CPVL,inactive: 0.334
17,ACACGGCCGUCAUCCUUGUTT against NPBWR2,inactive: 0.438
18,GGAUAGUGGUUCUAUGACUTT against KRT86,inactive: -0.689
19,GCGCGGAAAACGUGACUUUTT against RGS14,inactive: 0.655
20,GGAUUGUGAGGACUAUUUUTT against ANXA13,inactive: -0.467
21,GAAGUUCGGUCGAACCACATT against CST5,inactive: 0.466
22,GGAGGCUCGUUUUCCCGUATT against EGR4,inactive: 0

row,Sequence,median seed-adjusted z-score
1,CAUAUUAGAUGAACUGGUATT against RAD18,inactive: 0.562
2,GGACCGACCUAGAUUUGAATT against PRKAR1A,inactive: 0.428
3,GCCUGAAAGUGCAAGGUAUTT against SVOP,inactive: 0
4,GCUUUGACCUUCUUAGCAATT against SMARCAL1,inactive: -0.145
5,GACAUAUCUGUGAUGCUAATT against IL7,inactive: 0.253
6,GCAUUUACAAUGAGGUAAATT against SNUPN,inactive: -0.199
7,GAAUAUCGGUUGGAUUAUATT against ITGAV,active: 1.17
8,CACUUGUGAAGUAACAGAATT against CD47,inactive: 0.0241
9,GCACCGAGUCGGAGAUGAATT against MGAT5B,inactive: 0
10,GGAAAGCACAUUCCGUUUATT against ORC4L,inactive: -0.286
11,GUAUGUUAAGUGCUAUUCATT against UCHL5,inactive: -0.358
12,GGUGCAAUGAGCUACGUUATT against MCF2,inactive: 0.51
13,CCAUAGGCGUGAGAGUUUATT against ZNF219,inactive: 0.127
14,CCCAAACCCUUAACCAUGATT against TOX3,inactive: -0.216
15,GGAUGAUUACCUAUUCAUUTT against LRRC55,inactive: 0.314
16,GGUUUUCAUAUCUUACUAATT against ZNF695,inactive: -0.358
17,GAACGUGAAGAAGUAAGUUTT against EIF3A,inactive: -0.689
18,CAAGUUCCCUUACCCAACATT against ZHX1,inactive: -0.566
19,GGACCAUUGGUGAUGAGAATT against CD36,inactive: -0.000845
20,CAUCCAGUCUGUAUACGAATT against ACLY,inactive: 0.478
21,GGUCUGUCAUGCUAAUCCATT against COPB1,inactive: -0.839
22,GGAGACUAGUGGUGGGAUATT against CCL16,inactive: -0.308

# Another view of some results above:
row | Sequence | median seed-adjusted z-score
21 | GAAGUUCGGUCGAACCACATT against CST5 | inactive: 0.466
22 | GGAGGCUCGUUUUCCCGUATT against EGR4 | inactive: 0
1 | CAUAUUAGAUGAACUGGUATT against RAD18 | inactive: 0.562
2 | GGACCGACCUAGAUUUGAATT against PRKAR1A | inactive: 0.428
3 | GCCUGAAAGUGCAAGGUAUTT against SVOP | inactive: 0
4 | GCUUUGACCUUCUUAGCAATT against SMARCAL1 | inactive: -0.145
5 | GACAUAUCUGUGAUGCUAATT against IL7 | inactive: 0.253
6 | GCAUUUACAAUGAGGUAAATT against SNUPN | inactive: -0.199
7 | GAAUAUCGGUUGGAUUAUATT against ITGAV | active: 1.17
8 | CACUUGUGAAGUAACAGAATT against CD47 | inactive: 0.0241
9 | GCACCGAGUCGGAGAUGAATT against MGAT5B | inactive: 0
10 | GGAAAGCACAUUCCGUUUATT against ORC4L | inactive: -0.286
11 | GUAUGUUAAGUGCUAUUCATT against UCHL5 | inactive: -0.358
12 | GGUGCAAUGAGCUACGUUATT against MCF2 | inactive: 0.51
13 | CCAUAGGCGUGAGAGUUUATT against ZNF219 | inactive: 0.127
14 | CCCAAACCCUUAACCAUGATT against TOX3 | inactive: -0.216
15 | GGAUGAUUACCUAUUCAUUTT against LRRC55 | inactive: 0.314
16 | GGUUUUCAUAUCUUACUAATT against ZNF695 | inactive: -0.358
17 | GAACGUGAAGAAGUAAGUUTT against EIF3A | inactive: -0.689
18 | CAAGUUCCCUUACCCAACATT against ZHX1 | inactive: -0.566
19 | GGACCAUUGGUGAUGAGAATT against CD36 | inactive: -0.000845
20 | CAUCCAGUCUGUAUACGAATT against ACLY | inactive: 0.478
21 | GGUCUGUCAUGCUAAUCCATT against COPB1 | inactive: -0.839

# (list continues)

row,Sequence,median seed-adjusted z-score
1,GGACCACUAUUUACAGCAATT against FUCA2,inactive: 0.562
2,GGUUGUGACUGGAUCUAAUTT against NFATC3,inactive: -0.517
3,GCUGUGAAAUUGUUUCGAATT against IREB2,inactive: 0
4,ACACCCGUGUCUCAAGAUATT against KLK13,inactive: 0.452
5,GGAUACGGAUGAUUGAGAATT against ARHGAP26,inactive: 0.34
6,GGACAAUGCCUACAUGAUATT against KRT2,inactive: -0.451
7,GAAGUAUGCUGAGAAAGCATT against ARSG,inactive: -0.133
8,AGUCUGUCCUCCUAAGAAATT against SLPI,inactive: 0.274
9,GGAACGGGAUUGGUUCACATT against IARS2,inactive: -0.404
10,GCAUUUGCCUAAUCCUCAUTT against ZNF18,inactive: -0.27
11,GCCCUAAAGGAGAAAGUCATT against MAT2A,active: -1.9
12,GCCGUUUAGGGAAAUCUUATT against P2RY14,inactive: -0.0536
13,CGAUUAAUCUUUCAUCGUUTT against NPHP3,inactive: 0.239
14,CGGUCCAUGCAGUUGUAUATT against SEC61A1,inactive: 0.312
15,CAACCGCGCUCUCAAGAGATT against RGS8,inactive: 0.739
16,GAAAAGUACUUCCUACUGUTT against LPAR2,inactive: 0.171
17,CAGUUUGUUGAAUAUGAUATT against RCN2,inactive: -0.112
18,GGAAGACGAUAACAGGAUCTT against SF1,inactive: 0.795
19,GCAAUGGACGCAUCAAACATT against PTPRS,inactive: -0.433
